Assay results: patent US20100119511A1
No constants are given. Whether binding was seen depends on the method and setting. Some binding calls cover weakened binding; strength is not graded here.

By UniProt entry, the sequences of proteins in these tests, tags left out. Residues count along the entry.
UniProt P70424, residues 23-653: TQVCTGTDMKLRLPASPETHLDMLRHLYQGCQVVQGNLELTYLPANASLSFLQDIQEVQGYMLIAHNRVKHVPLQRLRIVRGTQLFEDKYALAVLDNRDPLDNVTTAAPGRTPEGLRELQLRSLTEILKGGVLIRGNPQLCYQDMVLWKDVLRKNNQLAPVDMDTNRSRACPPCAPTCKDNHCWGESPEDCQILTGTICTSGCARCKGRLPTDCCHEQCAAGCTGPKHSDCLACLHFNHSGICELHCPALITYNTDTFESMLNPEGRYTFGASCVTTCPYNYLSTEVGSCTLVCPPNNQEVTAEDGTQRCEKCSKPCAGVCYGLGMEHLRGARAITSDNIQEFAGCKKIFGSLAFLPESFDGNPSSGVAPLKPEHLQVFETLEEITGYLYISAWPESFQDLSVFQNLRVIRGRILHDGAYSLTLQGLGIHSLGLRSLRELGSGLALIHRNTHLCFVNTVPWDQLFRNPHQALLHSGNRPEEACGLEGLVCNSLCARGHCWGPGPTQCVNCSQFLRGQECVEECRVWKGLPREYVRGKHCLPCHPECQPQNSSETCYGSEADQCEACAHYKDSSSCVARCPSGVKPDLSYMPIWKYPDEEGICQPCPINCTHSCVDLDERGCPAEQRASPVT
UniProt P06494, residues 23-1257: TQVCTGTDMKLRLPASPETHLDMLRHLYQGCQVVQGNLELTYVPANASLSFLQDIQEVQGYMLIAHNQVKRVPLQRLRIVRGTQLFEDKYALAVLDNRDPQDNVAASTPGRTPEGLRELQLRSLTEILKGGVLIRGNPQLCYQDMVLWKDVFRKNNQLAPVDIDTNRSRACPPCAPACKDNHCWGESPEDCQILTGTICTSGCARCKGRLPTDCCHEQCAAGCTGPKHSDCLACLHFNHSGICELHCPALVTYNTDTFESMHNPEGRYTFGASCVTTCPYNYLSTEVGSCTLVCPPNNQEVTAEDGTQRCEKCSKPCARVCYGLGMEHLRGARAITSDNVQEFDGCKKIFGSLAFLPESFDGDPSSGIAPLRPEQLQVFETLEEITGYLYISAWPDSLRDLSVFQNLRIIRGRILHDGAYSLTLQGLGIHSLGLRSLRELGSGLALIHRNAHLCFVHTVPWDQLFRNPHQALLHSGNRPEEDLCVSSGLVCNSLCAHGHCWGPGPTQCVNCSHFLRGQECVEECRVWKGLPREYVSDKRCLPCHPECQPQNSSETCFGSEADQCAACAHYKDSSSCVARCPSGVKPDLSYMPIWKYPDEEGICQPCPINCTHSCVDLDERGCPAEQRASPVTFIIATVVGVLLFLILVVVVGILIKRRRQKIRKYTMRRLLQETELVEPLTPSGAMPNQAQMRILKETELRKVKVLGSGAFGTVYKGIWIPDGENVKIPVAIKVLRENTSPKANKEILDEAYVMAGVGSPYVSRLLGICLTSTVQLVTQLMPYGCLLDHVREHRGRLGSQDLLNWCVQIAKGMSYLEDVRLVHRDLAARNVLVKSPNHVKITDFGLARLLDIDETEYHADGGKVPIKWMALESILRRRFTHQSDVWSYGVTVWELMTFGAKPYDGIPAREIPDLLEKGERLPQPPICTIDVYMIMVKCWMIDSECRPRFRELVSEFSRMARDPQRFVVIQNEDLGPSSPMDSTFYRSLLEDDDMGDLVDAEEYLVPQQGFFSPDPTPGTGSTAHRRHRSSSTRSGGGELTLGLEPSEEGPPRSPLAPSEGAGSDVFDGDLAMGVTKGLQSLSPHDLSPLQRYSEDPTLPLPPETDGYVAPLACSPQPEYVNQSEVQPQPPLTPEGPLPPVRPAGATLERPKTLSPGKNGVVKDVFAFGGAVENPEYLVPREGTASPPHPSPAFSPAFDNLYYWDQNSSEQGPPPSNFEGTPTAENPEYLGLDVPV

How the values were obtained:
D1-D2 Her2-Fc = assay: ELISA, HER2 domain-Fc captured on anti-huFc, detection HRP-anti-fab
D1-D2-D3 Her2-Fc = assay: as above
[1] = target: wild type mHER2/ErbB2 (ELISA of Example 3) (mouse) (UniProt P70424); assay: ELISA
[2] = target: rat HER2 on Tubo cancer cells (rat) (UniProt P06494); assay: FACS on Tubo cancer cells
[3] = target: human HER2/ErbB2, full length, on cells (human) (UniProt P04626); assay: flow cytometry on SKBR3 cells
[4] = target: human HER2/ErbB2, full length, on cells (human) (UniProt P04626); assay: flow cytometry on CHO/hHER2 cells; binder pre-incubated with Control IgG, LTbR-Ig or Her2-Fc, each 20ug/ml
[5] = target: human HER2/ErbB2, full length, on cells (human) (UniProt P04626); assay: flow cytometry on CHO/hHER2 cells, detection anti-hFc; because the IgG carries its own Fc these panels say nothing on LTbR-Ig or HVEM-Ig

| binding (D1-D2 Her2-Fc) | binding (D1-D2-D3 Her2-Fc) | Binder | further results |
| --- | --- | --- | --- |
| binds | binds | BIIB67F10 Fab (Fab, V domains shown) VH: EVQLLESGGGLVQPGGSLRLSCAASGFTFSPYMMVWVRQAPGKGLEWVSWISPSGGYTFYADSVKGRFTISRDNSKNTLYLQMNSLRAEDTAVYYCAYGTYPLTYWGQGTLVTVSS VL: QSELTQTPSVSVSPGQTASITCSGDKLGDKYVSWFQLKPGQSPLLVIYQDSKWPSGIPERFSGSNSGNTATLTISGTQATDEADYYCQVWDISHVVFGGGTKLTVL | – |
| – | binds | BIIB66C01 Fab (Fab, V domains shown) VH: EVQLLESGGGLVQPGGSLRLSCAASGFTFSWYSMSWVRQAPGKGLEWVSSISSSGGPTHYADSVKGRFTISRDNSKNTLYLQMNSLRAEDTAVYYCARDSSYSGTSWGQGTLVTVSS VL: QYELTQPPSVSGTPGQRVTISCSGSSSNIGSEYVYWFQQLPGTAPRLLIYRNDQRPSGVPDRFSGSKSGTSASLAISGLRSEDETDYYCTTWDDSLSGPVFGGGTKLTVL | – |
| binds | binds | BIIB69A09 Fab (Fab, V domains shown) VH: EVQLLESGGGLVQPGGSLRLSCAASGFTFSRYNMWWVRQAPGKGLEWVSVIRSSGGYTGYADSVKGRFTISRDNSKNTLYLQMNSLRAEDTAVYYCARWNSGYSYWDYYYGMDVWGQGTTVTVSS VL: DIQMTQSPSSLSASVGDRVTITCRASQSISSYLNWYQQKPGKAPKLLIYAASSLQSGVPSRFSGSGSGTDFTLTISSLQPEDFATYYCQQFNTYPITFGPGTKVDIK | – |
| – | binds | BIIB65H09 Fab (Fab, V domains shown) VH: EVQLLESGGGLVQPGGSLRLSCAASGFTFSWYSMWWVRQAPGKGLEWVSSIVSSGGQTRYADSVKGRFTISRDNSKNTLYLQMNSLRAEDTAVYYCARVKGYYYYIDVWGKGTTVTVSS VL: DIQMTQSPGTLSLSPGERATLSCRASQSVDSSYLSWYQQKPGQAPRLLIYGASTRATGIPARFSGSGSGTDFTLTVSRLEPEDFAVYYCQQHGYSSRTFGQGTKVEIK | – |
| binds | binds | BIIB67F11 Fab (Fab, V domains shown) VH: EVQLLESGGGLVQPGGSLRLSCAASGFTFSNYYMMWVRQAPGKGLEWVSVIGSSGGMTNYADSVKGRFTISRDNSKNTLYLQMNSLRAEDTAVYYCARGYPTGYYDSSGWVYSYYGIDVWGQGTTVTVSS VL: DIQMTQSPSSLSASIGDRVTITCQASQDTDNRLHWYQQKSGRAPKLLIYDAVNLKRGVPSRFRGSGSGTNFILTITNLQPEDMATYFCQHSDGLSLAFGGGTKLEIK | – |
| – | binds | BIIB65B03 Fab (Fab, V domains shown) VH: EVQLLESGGGLVQPGGSLRLSCAASGFTFSWYRMNWVRQAPGKGLEWVSSIYSSGGPTNYADSVKGRFTISRDNSQNTLYLQMNSLRAEDTAVYYCTREKPDYYDSSGYLDYWGQGTLVTVSS VL: DIQMTQSPGTLSLSPGERSTLSCRASQSVSSSYLAWYQQKPGQAPRLLIYGASSRATGIPDRFSGSGSGTDFTLTISRLEPEDFGVYYCHQYGRPPVFGPGTKVDIK | – |
| binds | binds | BIIB71F10 Fab (Fab, V domains shown) VH: EVQLLESGGGLVQPGGSLRLSCAASGFTFSSYGMVWVRQAPGKGLEWVSSISSSGGLTWYADSVKGRFTISRDNSKNTLYLQMNSLRAEDTAVYYCASPPGIAVARDYWGQGTLVTVSS VL: DIQMTQSPSSLSASVGDRVTITCRASQGISNYLAWYQQKPGKVPKLLIYAASTLQSGVPSRFSGSGSGTDFTLTISSLQPEDVATYYCQKYNSALLTFGGGTKVEIK | binding [1]: binds; binding [2]: binds |
| – | – | 71F10 IgG (BIIB71F10-134) (antibody, V domains shown) VH: EVQLLESGGGLVQPGGSLRLSCAASGFTFSSYGMVWVRQAPGKGLEWVSSISSSGGLTWYADSVKGRFTISRDNSKNTLYLQMNSLRAEDTAVYYCASPPGIAVARDYWGQGTLVTVSS VL: DIQMTQSPSSLSASVGDRVTITCRASQGISNYLAWYQQKPGKVPKLLIYAASTLQSGVPSRFSGSGSGTDFTLTISSLQPEDVATYYCQKYNSALLTFGGGTKVEIKR | binding [3]: binds; binding [4]: binds; binding [5]: binds |
